Among the data in patent publication US10010520B2, “Combined application of isothiocyanate compound and anti-cancer medicine” (JC (WUXI) COMPANY, INC., priority 2013, dated 2018) are IC50 values, retold here.

The test system of this assay is Jurkat E6-1 cells. The assay is described as follows: CellTiter-Glo cell viability, drugs alone or in combination, Jurkat E6-1 cells. The format is cell-based. To be noted: Homo sapiens, Jurkat E6.1, 72 h, read-out: (Bs)50, IC50 of drug B when used alone. As to the method: isothiocyanates or derivatives thereof and DNA-effecting or influencing anticancer drugs, kinase-inhibiting anticancer drugs or hormonal anticancer drugs for endocrine therapy were administered separately or in combination to cancer cells. Cells were seeded into 384-well plates, and cultured for 24 hours in a CO2 incubator. Drugs were dissolved in DMSO and diluted to 9 concentration-gradients in 96 well plates, and then added to corresponding cells in 384-well plates, in which the concentrations of DMSO in 384 well plates were less than 1%. Triplicate wells were set for each concentration. After administration, the cells were cultured in the CO2 incubator for another 72 hrs, and afterwards, cell viability was tested by using CellTiter-Glo® reagent and luminescence detector. And IC50 values of each administration group were calculated.
CI value was calculated by the following formula: CI=(Am)50/(As)50+(Bm)50/(Bs)50,
Triplicate wells were set for each co-administration cell well.
After administration, cells were cultured in the CO2 incubator for another 72 hrs, and afterwards, cell viability was tested by using CellTiter-Glo® reagent and luminescence detector. Curves were plotted according to concentrations or logarithm concentrations of drug A vs cell inhibition rate in the corresponding cell well, and IC50, i.e. (Am)50 was calculated. […]
On the technique in general: Cellular ATP, detected with luciferase, serves as a proxy for viable cell number.

pIC50: −log10 of the molar value.

As usually defined, the pIC50 is the IC50 on a negative log10 scale, so that one unit is a factor of ten.

`O=C(CCCCCCC(=O)Nc1ccccc1)NO` [Vorinostat, vorinostat, reference compound]: the pIC50 was 5.91.
